Here are results for one molecule from the supplement of paper PMC8728848.

This is one part of the list.

Test in all cases: glycan array binding signal (z-score within array); higher = stronger binding
Holding throughout (settings): glycan notation: IUPAC condensed, linker removed

The target of assay [1] is Gal(b1-4)GlcNAc(b1-2)Man(a1-3)[Gal(b1-4)GlcNAc(b1-2)Man(a1-6)]Man(b1-4)GlcNAc(b1-4)GlcNAc. In short, it runs like this: (§1)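 Negative Z-scores can be read as non-binding. The Z-score is calculated within each array and then averaged across arrays of one protein sequence at different concentrations or buffers and across linkers. Arrays, 3228 in all, were curated from the Consortium for Functional Glycomics database and kept only where the protein sequence was available.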

Assay [2] addresses Gal(b1-4)GlcNAc(b1-2)Man(a1-3)[Gal(b1-4)GlcNAc(b1-2)Man(a1-6)]Man(b1-4)GlcNAc(b1-4)[Fuc(a1-6)]GlcNAc. In short, it runs like this:
as §1

For assay [3], the target named is Gal(b1-4)GlcNAc(b1-2)Man(a1-3)[Gal(b1-4)GlcNAc(b1-2)Man(a1-6)][Gal(b1-4)GlcNAc(b1-4)]Man(b1-4)GlcNAc(b1-4)[Fuc(a1-6)]GlcNAc. Put shortly: as §1
The target in assay [4] is Gal(b1-4)GlcNAc(b1-2)Man(a1-3)[Gal(b1-4)GlcNAc(b1-2)Man(a1-6)][GlcNAc(b1-4)]Man(b1-4)GlcNAc(b1-4)[Fuc(a1-6)]GlcNAc. Put shortly: as §1
Assay [5] concerns the target Gal(b1-4)GlcNAc(b1-2)Man(a1-3)[GlcNAc(b1-2)Man(a1-6)]Man(b1-4)GlcNAc(b1-4)GlcNAc. In short, it runs like this:
as §1

Assay [6] concerns the target Gal(b1-4)GlcNAc(b1-2)Man(a1-3)[GlcNAc(b1-4)][Gal(b1-4)GlcNAc(b1-2)Man(a1-6)]Man(b1-4)GlcNAc(b1-4)GlcNAc. In short, it runs like this: as §1
Assay [7] addresses Gal(b1-4)GlcNAc(b1-2)Man(a1-3)[Man(a1-6)]Man(b1-4)GlcNAc(b1-4)GlcNAc. In short, it runs like this: as §1
The target of assay [8] is Gal(b1-4)GlcNAc(b1-2)Man(a1-6)Man(b1-4)GlcNAc(b1-4)GlcNAc. In short, it runs like this:
as §1

For assay [9], the target named is Gal(b1-4)GlcNAc(b1-2)Man(a1-6)[GlcNAc(b1-2)Man(a1-3)]Man(b1-4)GlcNAc(b1-4)GlcNAc. Put shortly: as §1
Assay [10] deals with Gal(b1-4)GlcNAc(b1-2)Man(a1-6)[Man(a1-3)]Man(b1-4)GlcNAc(b1-4)GlcNAc. Put shortly: as §1
The target of assay [11] is Gal(b1-4)GlcNAc(b1-2)[Gal(b1-4)GlcNAc(b1-4)]Man(a1-3)[Gal(b1-4)GlcNAc(b1-2)Man(a1-6)]Man(b1-4)GlcNAc(b1-4)GlcNAc. Put shortly:
as §1

In assay [12] the target is Gal(b1-4)GlcNAc(b1-2)[Gal(b1-4)GlcNAc(b1-4)]Man(a1-3)[Gal(b1-4)GlcNAc(b1-2)[Gal(b1-4)GlcNAc(b1-6)]Man(a1-6)]Man(b1-4)GlcNAc(b1-4)GlcNAc. In short, it runs like this: as §1
Assay [13] has as its target Gal(b1-4)GlcNAc(b1-2)[Gal(b1-4)GlcNAc(b1-4)]Man(a1-3)[GlcNAc(b1-4)][Gal(b1-4)GlcNAc(b1-2)Man(a1-6)]Man(b1-4)GlcNAc(b1-4)GlcNAc. Put shortly: as §1
The target of assay [14] is Gal(b1-4)GlcNAc(b1-2)[Gal(b1-4)GlcNAc(b1-4)]Man(a1-3)[GlcNAc(b1-4)][Gal(b1-4)GlcNAc(b1-2)[Gal(b1-4)GlcNAc(b1-6)]Man(a1-6)]Man(b1-4)GlcNAc(b1-4)GlcNAc. In short, it runs like this:
as §1

In assay [15] the target is Gal(b1-4)GlcNAc(b1-2)[Gal(b1-4)GlcNAc(b1-6)]Man(a1-6)[Gal(b1-4)GlcNAc(b1-2)Man(a1-3)]Man(b1-4)GlcNAc(b1-4)GlcNAc. Put shortly:
as §1

Assay [16] deals with Gal(b1-4)GlcNAc(b1-2)[Gal(b1-4)GlcNAc(b1-6)]Man(a1-6)[Gal(b1-4)GlcNAc(b1-2)Man(a1-3)]Man(b1-4)GlcNAc(b1-4)[Fuc(a1-6)]GlcNAc. Put shortly:
as §1

In assay [17] the target is Gal(b1-4)GlcNAc(b1-2)[Gal(b1-4)GlcNAc(b1-6)]Man(a1-6)[GlcNAc(b1-4)][Gal(b1-4)GlcNAc(b1-2)Man(a1-3)]Man(b1-4)GlcNAc(b1-4)GlcNAc. Put shortly:
as §1

Assay [18] concerns the target Gal(b1-4)GlcNAc(b1-2)[Gal(b1-4)GlcNAc(b1-6)]Man(a1-6)[GlcNAc(b1-4)][Gal(b1-4)GlcNAc(b1-2)[Gal(b1-4)GlcNAc(b1-4)]Man(a1-3)]Man(b1-4)GlcNAc(b1-4)[Fuc(a1-6)]GlcNAc. In short, it runs like this:
as §1

For assay [19], the target named is Gal(b1-4)GlcNAc(b1-3)Gal(b1-3)GalNAc. In short, it runs like this:
as §1

B1: Epa11 (Candida glabrata) (protein)
chain: MGSSHHHHHHSSGLVPRGSHMASSNAPNYPVGCSPSVGTQLTPGLSLEVYAYPMDGNNGYCWNATYKDPEFPRSGYLKNKLLGKADGVVGPLNFLAKNKDCSPKVDTLPAGFNFPQPITVTNFTMVLFGYLAPKQSGKYTFKLLADDLLLLNLGATNAFDCCNREATKNNLGEFLAYNLWPNQDKNVTVYLEKGVYYPLRLFFNNRDGGSQLDFSYYFNDSPAPLTDFSGMFFSVPDGAECPARI
For the molecule B1, the “glycan array binding signal (z-score)” value is -0.671 in [1]; 0.196 in [2]; 0.292 in assay [3]; -0.238 in assay [4]; -0.246 in [5]; -1.27 in assay [6]. In addition, the “glycan array binding signal (z-score)” value was 0.333 in assay [7]; -0.165 in [8]; 0.418 in assay [9]; 0.619 in assay [10]; -0.412 in assay [11]; -0.643 in assay [12]. The “glycan array binding signal (z-score)” value in assay [13] is -0.062; in assay [14], -0.968; in assay [15] it was -2.79; in assay [16], -0.479; in [17] it was -0.232; in [18] it was -0.621. In addition, the “glycan array binding signal (z-score)” value in [19] was -0.415.
